Like-named read-outs stand apart in the source and are kept apart here. Some results were stated once for a whole list of compounds, not compound by compound.
What was measured:
[1] = target: T1, peptidylglutamyl activity of 20S proteasome (Bos taurus, UniProt Q2TBP0+Q3MHN0); assay: 20S proteasome peptidylglutamyl activity inhibition assay (CBZ-D-Ala-Leu-Glu-AMC cleavage); assay type: biochemical; conditions: Example 6: 2 μg 20S proteasome from bovine brain, substrate CBZ D-Ala-Leu-Glu-AMC, 15 minutes at 37° C.; for IC50: read-out: peptidylglutamyl activity inhibition, active at
T1 construct: was purified to homogeneity from bovine brain according to published methods; from tissue; host or cells: bovine brain
Protocol: Compounds of this invention prepared according to the method of Example 1 were also tested as follows. The 20S catalytic subunit of the proteasome (also known as the multicatalytic proteinase complex) was purified to homogeneity from bovine brain according to published methods (Wilk S. and Orlowski, M. 1983, 40 842 J. Neurochem). […] of the complex is measured by the increase in fluorescence following cleavage of the substrate peptide CBZ D-Ala-Leu-Glu-(7-amino-4-methyl coumarin). The standard in vitro assay consists of 2 μg 20S proteasome, 0.1-100 μg/ml proteasome inhibitor in […] 50 mM HEPES, containing 0.1% sodium dodecyl sulphate, pH 7.5. The proteolytic reaction is initiated by the addition of […] fluorogenic peptide substrate and allowed to progress for 15 minutes at 37° C. The reaction is terminated by the addition of […] 100 mM acetate buffer, pH 4.0. The rate of proteolysis is directly proportional to the amount of liberated aminomethylcoumarin which is measured by fluorescent spectroscopy (EX 370 nm, EM 430 nm). Compounds 1-207 were tested for peptidylglutamyl activity inhibition at >10 μg/mL. Compound 190 was active at 5 μg/mL.

Amino acid sequences for entries named in this document (tags omitted). A change or cut given only in a name is not applied to a line headed by its entry.
UniProt Q2TBP0: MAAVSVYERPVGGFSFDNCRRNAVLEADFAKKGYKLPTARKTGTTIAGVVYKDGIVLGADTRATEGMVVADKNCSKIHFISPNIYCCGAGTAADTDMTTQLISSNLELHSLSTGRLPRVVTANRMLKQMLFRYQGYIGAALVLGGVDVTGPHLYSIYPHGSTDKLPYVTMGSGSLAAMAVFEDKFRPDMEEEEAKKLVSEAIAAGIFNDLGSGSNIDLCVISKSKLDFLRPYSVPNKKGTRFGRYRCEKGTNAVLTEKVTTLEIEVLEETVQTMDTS
UniProt Q3MHN0: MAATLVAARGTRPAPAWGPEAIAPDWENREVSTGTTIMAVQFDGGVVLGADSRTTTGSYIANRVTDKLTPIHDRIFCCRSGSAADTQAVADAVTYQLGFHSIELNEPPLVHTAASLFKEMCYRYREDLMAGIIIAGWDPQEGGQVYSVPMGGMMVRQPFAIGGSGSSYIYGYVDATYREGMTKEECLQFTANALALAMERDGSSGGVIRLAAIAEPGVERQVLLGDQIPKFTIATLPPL
UniProt P33672: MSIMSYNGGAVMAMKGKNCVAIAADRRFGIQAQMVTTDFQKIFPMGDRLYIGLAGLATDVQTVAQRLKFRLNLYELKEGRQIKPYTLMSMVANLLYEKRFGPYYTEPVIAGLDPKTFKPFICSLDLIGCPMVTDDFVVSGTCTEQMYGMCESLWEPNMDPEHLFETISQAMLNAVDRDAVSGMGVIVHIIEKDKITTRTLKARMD

[2] = target: T2, tryptic activity of 20S proteasome (Bos taurus, UniProt P33672+Q2TBP0); assay: 20S proteasome tryptic activity inhibition assay (CBZ-D-Ala-Leu-Arg-AMC cleavage); assay type: biochemical, bovine; conditions: 15 minutes at 37° C.; for IC50: read-out: tryptic activity inhibition, active as inhibitors at
T2 construct: was purified to homogeneity from bovine brain according to published methods; from tissue; host or cells: bovine brain

[3] = Example 4: 2 μg 20S proteasome from bovine brain, substrate CBZ-D-Ala-Leu-Arg-AMC
[4] = Example 5: 20 μg 20S proteasome from bovine brain, substrate CBZ D-Ala-Leu-Arg-AMC

Row | peptidylglutamyl activity inhibition, active at [1] [µg/mL] | tryptic activity inhibition, active as inhibitors at [2, 3] [µg/mL] | tryptic activity inhibition, active as inhibitors at [2, 4] [µg·mL] | IC50 [1] [µM] | IC50 [2, 3] [µM] | IC50 [2, 4] [µM] | Structure (SMILES)
1 | > 10 | > 10 | > 10 | – | – | – | CC(C)CC(NC(=O)CCNC(=O)C(=O)Cc1c[nH]c2ccccc12)C(=O)NC(CO)C(=O)O (stereo not drawn) [Compound 90]
2 | – | – | – | > 19.4 | > 19.4 | > 19.4 | CCCC[C@H](NC(=O)C(=O)Cc1c[nH]c2ccccc12)C(=O)N[C@H](CC(C)C)C(=O)N[C@@H](CO)C(=O)O [Compound 91]
3 | > 10 | > 10 | > 10 | – | – | – | CC(C)CC(NC(=O)C(Cc1ccccc1)NC(=O)C(=O)Cc1c[nH]c2ccccc12)C(=O)NC(CO)C(=O)O (stereo not drawn) [Compound 92]
4 | > 10 | > 10 | > 10 | – | – | – | CC(C)CC(NC(=O)C(NC(=O)C(=O)Cc1c[nH]c2ccccc12)C(C)O)C(=O)NC(CO)C(=O)O (stereo not drawn) [Compound 93]
5 | > 10 | > 10 | > 10 | – | – | – | CC(C)CC(NC(=O)C(C)NC(=O)C(=O)Cc1c[nH]c2ccccc12)C(=O)NC(CO)C(=O)O (stereo not drawn) [Compound 94]
6 | > 10 | > 10 | > 10 | – | – | – | CC(C)CC(NC(=O)C(CC(=O)O)NC(=O)C(=O)Cc1c[nH]c2ccccc12)C(=O)NC(CO)C(=O)O (stereo not drawn) [Compound 95]
7 | > 10 | > 10 | > 10 | – | – | – | CC(C)CC(NC(=O)C(NC(=O)C(=O)Cc1c[nH]c2ccccc12)C(C)C)C(=O)NC(CO)C(=O)O (stereo not drawn) [Compound 96]
8 | > 10 | > 10 | > 10 | – | – | – | CCCC(NC(=O)C(=O)Cc1c[nH]c2ccccc12)C(=O)NC(CC(C)C)C(=O)NC(CO)C(=O)O (stereo not drawn) [Compound 97]
9 | > 10 | > 10 | > 10 | – | – | – | CC(C)CC(NC(=O)C(Cc1ccc(O)cc1)NC(=O)C(=O)Cc1c[nH]c2ccccc12)C(=O)NC(CO)C(=O)O (stereo not drawn) [Compound 98]
10 | > 10 | > 10 | > 10 | – | – | – | CCC(C)C(NC(=O)C(=O)Cc1c[nH]c2ccccc12)C(=O)NC(CC(C)C)C(=O)NC(CO)C(=O)O (stereo not drawn) [Compound 99]
11 | > 10 | > 10 | > 10 | – | – | – | CC(C)CC(NC(=O)C(CC1CCCCC1)NC(=O)C(=O)Cc1c[nH]c2ccccc12)C(=O)NC(CO)C(=O)O (stereo not drawn) [Compound 100]
12 | > 10 | > 10 | > 10 | – | – | – | CC(C)CC(NC(=O)C(Cc1cccnc1)NC(=O)C(=O)Cc1c[nH]c2ccccc12)C(=O)NC(CO)C(=O)O (stereo not drawn) [Compound 101]
13 | – | – | – | > 16.6 | > 16.6 | > 16.6 | CC(C)CC(NC(=O)C(Cc1ccc2ccccc2c1)NC(=O)C(=O)Cc1c[nH]c2ccccc12)C(=O)NC(CO)C(=O)O (stereo not drawn) [Compound 102]
14 | > 10 | > 10 | > 10 | – | – | – | CC(C)CC(NC(=O)C(Cc1ccc(-c2ccccc2)cc1)NC(=O)C(=O)Cc1c[nH]c2ccccc12)C(=O)NC(CO)C(=O)O (stereo not drawn) [Compound 103]
15 | > 10 | > 10 | > 10 | – | – | – | CC(C)CC(NC(=O)CNC(=O)C(=O)Cc1c[nH]c2ccccc12)C(=O)NC(Cc1ccccc1)C(=O)O (stereo not drawn) [Compound 104]
16 | > 10 | > 10 | > 10 | – | – | – | CC(C)CC(NC(=O)CCNC(=O)C(=O)Cc1c[nH]c2ccccc12)C(=O)NC(Cc1ccccc1)C(=O)O (stereo not drawn) [Compound 105]
17 | > 10 | > 10 | > 10 | – | – | – | CCCCC(NC(=O)C(=O)Cc1c[nH]c2ccccc12)C(=O)NC(CC(C)C)C(=O)NC(Cc1ccccc1)C(=O)O (stereo not drawn) [Compound 106]
18 | > 10 | > 10 | > 10 | – | – | – | CC(C)CC(NC(=O)C(Cc1ccccc1)NC(=O)C(=O)Cc1c[nH]c2ccccc12)C(=O)NC(Cc1ccccc1)C(=O)O (stereo not drawn) [Compound 107]
19 | > 10 | > 10 | > 10 | – | – | – | CC(C)CC(NC(=O)C(NC(=O)C(=O)Cc1c[nH]c2ccccc12)C(C)O)C(=O)NC(Cc1ccccc1)C(=O)O (stereo not drawn) [Compound 108]
20 | > 10 | > 10 | > 10 | – | – | – | CC(C)CC(NC(=O)C(C)NC(=O)C(=O)Cc1c[nH]c2ccccc12)C(=O)NC(Cc1ccccc1)C(=O)O (stereo not drawn) [Compound 109]
21 | > 10 | > 10 | > 10 | – | – | – | CC(C)CC(NC(=O)C(CC(=O)O)NC(=O)C(=O)Cc1c[nH]c2ccccc12)C(=O)NC(Cc1ccccc1)C(=O)O (stereo not drawn) [Compound 110]
22 | > 10 | > 10 | > 10 | – | – | – | CC(C)CC(NC(=O)C(NC(=O)C(=O)Cc1c[nH]c2ccccc12)C(C)C)C(=O)NC(Cc1ccccc1)C(=O)O (stereo not drawn) [Compound 111]
23 | > 10 | > 10 | > 10 | – | – | – | CCCC(NC(=O)C(=O)Cc1c[nH]c2ccccc12)C(=O)NC(CC(C)C)C(=O)NC(Cc1ccccc1)C(=O)O (stereo not drawn) [Compound 112]
24 | > 10 | > 10 | > 10 | – | – | – | CC(C)CC(NC(=O)C(Cc1ccc(O)cc1)NC(=O)C(=O)Cc1c[nH]c2ccccc12)C(=O)NC(Cc1ccccc1)C(=O)O (stereo not drawn) [Compound 113]
25 | > 10 | > 10 | > 10 | – | – | – | CCC(C)C(NC(=O)C(=O)Cc1c[nH]c2ccccc12)C(=O)NC(CC(C)C)C(=O)NC(Cc1ccccc1)C(=O)O (stereo not drawn) [Compound 114]
26 | > 10 | > 10 | > 10 | – | – | – | CC(C)CC(NC(=O)C(CC1CCCCC1)NC(=O)C(=O)Cc1c[nH]c2ccccc12)C(=O)NC(Cc1ccccc1)C(=O)O (stereo not drawn) [Compound 115]

Reference: US6781000B1, “Alpha-ketoamide inhibitors of 20S proteasome” (CV Theurapeutics, Inc., priority 1998, dated 2004)
